PubChem BioAssay AID1259308, NCATS | 2017
The whole screen tested about 59,000 reagents; below is a part drawn at random. In the full data, about 1,510 (2.6%) were called active. 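Calls use total luciferase alone and ignore viability, so some active siRNAs may act by altering cell number.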 Entries without a mark were called inactive. Not all columns of the deposit are shown.

Aim: 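Genes whose loss raises luciferase production in HEK293 cells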 (primary screen)
Cell system: human HEK293 embryonic kidney cells stably expressing firefly luciferase (HEK-CMV-Luc2-Hygro)
Reagent: single siRNA against human genes, 0.8 pmol siRNA per well
Time to read-out: 72 h
Detection: 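Reporter luminescence and viable-cell signal on separate replicate plates, given as percent of non-targeting control and median/MAD z-scores, plus per-cell luciferase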
Reading the numbers: total luciferase, z-score: higher = more reporter protein produced
Hit rule: 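An siRNA counts as active if its total luciferase robust z-score exceeds 3; genes with two or more such siRNAs out of three were retested with fresh siRNAs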
Calls: active = raised luciferase; inactive = no rise

GPR68 (GeneID 8111) [SID160719646]
- total luciferase, z-score: 0.504

GPR68 (GeneID 8111) [SID160719647]
- total luciferase, z-score: -0.245

GPR68 (GeneID 8111) [SID160731961]
- total luciferase, z-score: 2.11

MFAP2 (GeneID 4237) [SID160777180]
- total luciferase, z-score: 0.301

MFAP2 (GeneID 4237) [SID160777182]
- total luciferase, z-score: 1.15

MFAP2 (GeneID 4237) [SID160777183]
- total luciferase, z-score: 1.4

LSM8 (GeneID 51691) [SID160731391]
- total luciferase, z-score: 1.03

LSM8 (GeneID 51691) [SID160741216]
- total luciferase, z-score: 1.39

LSM8 (GeneID 51691) [SID160741218]
- total luciferase, z-score: 0.084

Continued; the last 2 above are carried over.
LSM8 (GeneID 51691) [SID160741216]
- total luciferase, z-score: 1.39

LSM8 (GeneID 51691) [SID160741218]
- total luciferase, z-score: 0.084

PODN (GeneID 127435) [SID160730586]
- total luciferase, z-score: 5.11 (active)

PODN (GeneID 127435) [SID160756629]
- total luciferase, z-score: -0.776

PODN (GeneID 127435) [SID160756630]
- total luciferase, z-score: 0.711

UBE4B (GeneID 10277) [SID160768962]
- total luciferase, z-score: 0.272

UBE4B (GeneID 10277) [SID160769051]
- total luciferase, z-score: -0.237

UBE4B (GeneID 10277) [SID160769144]
- total luciferase, z-score: -0.618

ATP5PF (GeneID 522) [SID160722007]
- total luciferase, z-score: 1.26

ATP5PF (GeneID 522) [SID160722018]
- total luciferase, z-score: 0.172

ATP5PF (GeneID 522) [SID160722029]
- total luciferase, z-score: 2.39

MIA (GeneID 8190) [SID160724124]
- total luciferase, z-score: 0.992

MIA (GeneID 8190) [SID160735015]
- total luciferase, z-score: -2.06

MIA (GeneID 8190) [SID160735016]
- total luciferase, z-score: -1.45
